In doi:10.1101/452904 (bioRxiv, 2018):
No constants are given. Whether binding was seen depends on the method and setting. Binding seen in cells or lysates may run through a third protein. A result given as binding can be weak or reduced; the word gives no strength. Where a sequence is shown, tags or fusion partners need not be part of it.

Key:
[1] = biological target: FLAG-tagged cTAGE5 wild-type (human); experiment: co-IP
[2] = biological target: FLAG-tagged cTAGE5 R757G (human); experiment: co-IP

binding [1]: binds | binding [2]: binds
B1: HA-tagged Sec12 (protein, UniProt Q9HCU5 1-417)
chain: MGRRRAPELYRAPFPLYALQVDPSTGLLIAAGGGGAAKTGIKNGVHFLQLELINGRLSASLLHSHDTETRATMNLALAGDILAAGQDAHCQLLRFQAHQQQGNKAEKAGSKEQGPRQRKGAAPAEKKCGAETQHEGLELRVENLQAVQTDFSSDPLQKVVCFNHDNTLLATGGTDGYVRVWKVPSLEKVLEFKAHEGEIEDLALGPDGKLVTVGRDLKASVWQKDQLVTQLHWQENGPTFSSTPYRYQACRFGQVPDQPAGLRLFTVQIPHKRLRQPPPCYLTAWDGSNFLPLRTKSCGHEVVSCLDVSESGTFLGLGTVTGSVAIYIAFSLQCLYYVREAHGIVVTDVAFLPEKGRGPELLGSHETALFSVAVDSRCQLHLLPSRRSVPVWLLLLLCVGLIIVTILLLQSAFPGFL
